Measured values published in patent US4745223A, “Mono-tertiary-alkylated toluenediamine and derivatives” (Air Products and Chemicals, Inc., priority 1985, dated 1988).
“And” between values parts separate entries of the source, which are not always exact repeats. Equal values may be shown once.

Key:
[1] = Pot life test of chain extenders in polyurethane-urea formulation; conditions: for T-5000 pot-life time: 50° C., time to relative viscosity of 5000 units
Protocol: A series of polyurethane-urea elastomers utilizing various chain extenders was prepared and evaluated in a pot life test system for the purpose of determining the reactivity of the chain extenders in standard urethane formulations relative to one another. The polyurethane-urea elastomers were formulated by reacting a prepolymer of poly(1,4-oxytetramethylene)glycol end-capped with 2,4-toluene diisocyanate, the prepolymer having an NCO content generally from 5-7%, with the test candidate chain extender aromatic diamine and a diol. The nominal stoichiometric equivalent ratio of isocyanate to diamine chain extender to diol for each sample is 2:1:1.
The test system for measuring pot life comprised a heated test chamber for holding 7 grams of test sample at a constant temperature (50° C.) and was equipped with a vertical perforated piston. This piston moves up and down through the test sample in timed relationship. (The temperature rise due to the exothermic reaction is discounted.) The force necessary to move the piston through the polymer sample is measured in arbitrary units, and the relationship of the force is plotted as a function of time. The force-pot life relationship of the urethane system during cure then is correlated to known force-viscosity relationships for the urethane-urea systems.
The coefficients apply to the equation:
log (viscosity)=I+A(time)+B(time)^2 +C(time)^3.
The coefficient of the first power term ("A") is a "quasi" reaction rate constant measuring initial reactivity. Smaller values in the quasi rate constant (A) indicate longer and desirable pot lives. The value T-5000 is the time in which the reaction product has a relative viscosity of 5000 units. Even though the value is an arbitrary value, that value is relevant for use in determining the performance of the test candidate in a RIM process or cast elastomers process. For injection molding of modest size parts, T-5000 may be about 2.5 minutes; whereas, the molding of large or intricate parts may require a T-5000 of greater than 5 minutes, e.g., 10 to 40 minutes for hand casting.

[2] = Physical properties of cast polyurethane elastomers (ADIPRENE 167) made with the chain extender; conditions: for Ratio 300/100 tensile / tear resistance / 100% tensile / 200% tensile / 300% tensile / break tensile / Shore A Hardness / Shore D Hardness / % elongation: cast, NCO index .95 (3tB26TDA) or 1.04-1.05; for tear resistance: ASTM D624 (Die C); for 100% tensile / 200% tensile / 300% tensile / break tensile: ASTM D1708; for Shore A Hardness / Shore D Hardness: ASTM D2240; for % elongation: at break
[3] = Physical properties of RIM (reaction injection molded) elastomers made with the chain extender; conditions: Table 5, VORANOL 5815, 22 pph

3-Cyclopentenyl-2,6-toluenediamine [3Cp26TDA]
T-5000 pot-life time [1]: 3.52 min
T-5000 pot-life time ([1]; listed as 3-cyclopentenyl-2,6-TDA): 3.5 min

Cc1c(N)ccc(C(C)C)c1N [3iP26TDA, 3-isoPropyl-2,6-toluendiamine]
T-5000 pot-life time [1]: 2.68 min
T-5000 pot-life time ([1]; listed as 3-isopropyl-2,6-TDA): 2.47 min
potlife increase over 3-5-diisopropyl-2,6-TDA ([1]; relative to 3-5-diisopropyl-2,6-TDA): about 50%

CCC(C)(C)c1ccc(N)c(C)c1N [3tA26TDA, 3-tertiaryAmyl-2,6-toluenediamine]
T-5000 pot-life time [1]: 16.7 min

Cc1c(N)ccc(C(C)(C)C)c1N [3tB26TDA, 3-tert-butyl-2,6-toluenediamine]
T-5000 pot-life time [1]: 17.8 min
Ratio 300/100 tensile [2]: 2.26
tear resistance [2]: 660 pli
100% tensile [2]: 1520 psi
200% tensile [2]: 2380 psi
300% tensile [2]: 3440 psi
break tensile [2]: 5490 psi
Shore A Hardness [2]: 94
Shore D Hardness [2]: 44
% elongation [2]: 480%
100% tensile ([3]; NCO index 1.04-1.06): 1720 psi
200% tensile ([3]; NCO index 1.04-1.06): 2180 psi
300% tensile ([3]; NCO index 1.04-1.06): 2760 psi
% elongation ([3]; NCO index 1.04-1.06): 340%
Shore A Hardness ([3]; NCO index 1.04-1.06): 97
Shore D Hardness ([3]; NCO index 1.04-1.06): 60
break tensile ([3]; NCO index 1.04-1.06): 2920 psi
flexural modulus ([3]; NCO index 1.04-1.06): 30300 psi
maximum stress ([3]; NCO index 1.04-1.06): 1600 psi
sag (125° C., 1 hr) ([3]; NCO index 1.04-1.06): 2.11 in
tear resistance ([3]; NCO index 1.04-1.06): 650 pli
yield tensile ([3]; NCO index 1.04-1.06): 1910 psi
100% tensile ([3]; NCO index .93-.96): 1420 psi
200% tensile ([3]; NCO index .93-.96): 1750 psi
300% tensile ([3]; NCO index .93-.96): 2130 psi
% elongation ([3]; NCO index .93-.96): 410%
Shore A Hardness ([3]; NCO index .93-.96): 97
Shore D Hardness ([3]; NCO index .93-.96): 58
break tensile ([3]; NCO index .93-.96): 2560 psi
flexural modulus ([3]; NCO index .93-.96): 23600 psi
maximum stress ([3]; NCO index .93-.96): 1160 psi
sag (125° C., 1 hr) ([3]; NCO index .93-.96): 2.68 in
tear resistance ([3]; NCO index .93-.96): 600 pli
yield tensile ([3]; NCO index .93-.96): 1650 psi

Cc1cc(N)c(N)c(C(C)(C)C)c1 [3tB34TDA, 5-tertiaryButyl-3,4-toluenediamine]
T-5000 pot-life time [1]: 7.24 min
T-5000 pot-life time ([1]; listed as 5-tertiarybutyl-3,4-TDA): 7.2 min

Cc1c(N)ccc(C2(C)CCCC2)c1N [3tMCp26TDA, 3-tertiaryMethylcyclopentyl-2,6-toluenediamine]
T-5000 pot-life time [1]: 12.2 min

Cc1c(N)cc(C(C)(C)C)cc1N [4tB26TDA, 4-tertiaryButyl-2,6-toluenediamine]
T-5000 pot-life time [1]: .54 min
T-5000 pot-life time ([1]; listed as 4-tertiarybutyl-2,6-toluenediamine): 0.5 min

Cc1cc(C(C)C)c(N)cc1N [5iP24TDA, 5-isoPropyl-2,4-toluenediamine]
T-5000 pot-life time [1]: .54 min

Cc1cc(C(C)(C)C)c(N)c(C)c1N [5tB24DAmX, 5-tertiaryButyl-2,4-diaminometaxylene]
T-5000 pot-life time [1]: 2.6 min and 2.64 min

Cc1cc(C(C)(C)C)c(N)cc1N [5tB24TDA, 5-tert-butyl-2,4-toluenediamine]
T-5000 pot-life time [1]: 2.2 min and 2.24 min
suitability for preparing cast elastomers ([2]; ADIPRENE 167): too reactive
100% tensile ([3]; NCO index 1.04-1.06): 1570 psi
200% tensile ([3]; NCO index 1.04-1.06): 2000 psi
300% tensile ([3]; NCO index 1.04-1.06): 2540 psi
% elongation ([3]; NCO index 1.04-1.06): 490%
Shore A Hardness ([3]; NCO index 1.04-1.06): 97
Shore D Hardness ([3]; NCO index 1.04-1.06): 60
break tensile ([3]; NCO index 1.04-1.06): 3630 psi
flexural modulus ([3]; NCO index 1.04-1.06): 26900 psi
maximum stress ([3]; NCO index 1.04-1.06): 1370 psi
sag (125° C., 1 hr) ([3]; NCO index 1.04-1.06): 1.02 in
tear resistance ([3]; NCO index 1.04-1.06): 660 pli
yield tensile ([3]; NCO index 1.04-1.06): 1720 psi
100% tensile ([3]; NCO index .93-.96): 1320 psi
200% tensile ([3]; NCO index .93-.96): 1650 psi
300% tensile ([3]; NCO index .93-.96): 2080 psi
% elongation ([3]; NCO index .93-.96): 540%
Shore A Hardness ([3]; NCO index .93-.96): 97
Shore D Hardness ([3]; NCO index .93-.96): 59
break tensile ([3]; NCO index .93-.96): 3150 psi
flexural modulus ([3]; NCO index .93-.96): 22200 psi
maximum stress ([3]; NCO index .93-.96): 1100 psi
sag (125° C., 1 hr) ([3]; NCO index .93-.96): 1.46 in
tear resistance ([3]; NCO index .93-.96): 590 pli
yield tensile ([3]; NCO index .93-.96): 1520 psi

CCc1cc(C)c(N)c(CC)c1N [35DE24TDA, 3,5-Diethyl-2,4-toluenediamine]
T-5000 pot-life time [1]: 2.03 min

CCc1cc(CC)c(N)c(C)c1N [35DE26TDA, 3,5-Diethyl-2,6-toluenediamine]
T-5000 pot-life time [1]: 1.13 min

Cc1cc(C(C)C)c(N)c(C(C)C)c1N [35DiP24TDA, 3.5-Diisopropyl-2,4-toluenediamine]
T-5000 pot-life time [1]: 2.42 min

Cc1c(N)c(C(C)C)cc(C(C)C)c1N [35DiP26TDA, 3,5-Diisopropyl-2,6-toluenediamine]
T-5000 pot-life time [1]: 1.63 min

Cc1c(N)c(C(C)(C)C)cc(C(C)(C)C)c1N [35DtB26TDA, 3,5-Ditertiarybutyl-2,6-toluenediamine]
T-5000 pot-life time [1]: 11.3 min
Ratio 300/100 tensile [2]: 2.32
tear resistance [2]: 720 pli
100% tensile [2]: 1410 psi
200% tensile [2]: 2310 psi
300% tensile [2]: 3270 psi
break tensile [2]: 6540 psi
Shore A Hardness [2]: 93
Shore D Hardness [2]: 43
% elongation [2]: 620%

chlorotoluenediamine [Cl-TDA]
Ratio 300/100 tensile [2]: 2.16
tear resistance [2]: 530 pli
100% tensile [2]: 1360 psi
200% tensile [2]: 2080 psi
300% tensile [2]: 2940 psi
break tensile [2]: 3050 psi
Shore A Hardness [2]: 90
Shore D Hardness [2]: 39
% elongation [2]: 320%
